# Experimental data published in PMC12466757, “1,5-Diarylidene-4-Piperidones as Promising Antifungal Candidates Against Cryptococcus neoformans” (Antibiotics, 2025).
# Where “and” joins values, the source holds several entries; their conditions need not be identical. Equal entries are not always repeated.
# Test system: various human cells, i.e., A498, BEAS-2B, Caco-2, HaCaT, and HepG2
# Conditions: selectivity index = CC50 (human cells) divided by MIC (C. neoformans); min–max over the five cell lines
row,SMILES,SI Min–Max
1,CCCCOc1ccc(/C=C2\CN(C3CC3)C/C(=C\c3ccc(OCCCC)cc3OCCCC)C2=O)c(OCCCC)c1 [4h],> 4
2,CCCCOc1ccc(/C=C2\CN(Cc3ccccc3)C/C(=C\c3ccc(OCCCC)cc3OCCCC)C2=O)c(OCCCC)c1 [3h],5.4 to 80.5 and 5.4–80.5
3,"CCN1C/C(=C\c2ccc(C)cc2)C(=O)/C(=C/c2ccc(C)cc2)C1 [1b, 1-ethyl-3,5-bis((E)-4-methylbenzylidene)piperidin-4-one]",0.2–0.7
4,CCN1C/C(=C\c2ccc(C(F)(F)F)cc2)C(=O)/C(=C/c2ccc(C(F)(F)F)cc2)C1 [1f],0.07–0.3
5,CCN1C/C(=C\c2ccc(C#N)cc2)C(=O)/C(=C/c2ccc(C#N)cc2)C1 [1c],0.1–1.2
6,CCN1C/C(=C\c2ccc(Cl)cc2)C(=O)/C(=C/c2ccc(Cl)cc2)C1 [1e],0.09–0.4
7,CCN1C/C(=C\c2ccc3c(c2)OCO3)C(=O)/C(=C/c2ccc3c(c2)OCO3)C1 [2i],0.5–1.0
8,O=C1/C(=C/c2ccc[nH]2)CN(Cc2ccccc2)C/C1=C\c1ccc[nH]1 [3j],0.4–1.3
9,CCN1C/C(=C\c2cnc3ccccc3c2)C(=O)/C(=C/c2cnc3ccccc3c2)C1 [2l],0.1–0.3
10,"CCN1C/C(=C\c2ccc(OC)cc2)C(=O)/C(=C/c2ccc(OC)cc2)C1 [1a, 1-ethyl-3,5-bis((E)-4-methoxybenzylidene)piperidin-4-one]",0.5–3.7
11,CCN1C/C(=C\c2ccc([N+](=O)[O-])cc2)C(=O)/C(=C/c2ccc([N+](=O)[O-])cc2)C1 [1d],0.3–1.9
12,CCN1C/C(=C\c2ccccc2F)C(=O)/C(=C/c2ccccc2F)C1 [2j],0.1–0.7
13,"CCCCOc1ccc(/C=C2\CN(CC)C/C(=C\c3ccc(OCCCC)cc3OCCCC)C2=O)c(OCCCC)c1 [2h, 3,5-bis((E)-2,4-dibutoxybenzylidene) -1-ethylpiperidin-4-one]",4.5–22.3
